This data set can be described thus: Composition of amniotic fluid cell-derived ECM by mass spectrometry (total spectra count).
[1] abbreviates: protein component found by mass spectrometry in amniotic fluid cell-derived ECM Matrix A (Example 1).
The mark [2] stands for this setting: protein component found by mass spectrometry in amniotic fluid cell-derived ECM Matrix B (Example 1).
The mark [3] stands for this setting: protein component found by mass spectrometry in amniotic fluid cell-derived ECM Matrix C (Example 1).
Setting [4] is: protein component found by mass spectrometry in amniotic fluid cell-derived ECM Matrix D (Example 1).
Setting [5] is: amniotic fluid cell-derived ECM Matrix A, mass spectrometry, label = protein component.
Setting [6] is: amniotic fluid cell-derived ECM Matrix B, mass spectrometry, label = protein component.
[7] abbreviates: amniotic fluid cell-derived ECM Matrix C, mass spectrometry, label = protein component.
Setting [8] is: amniotic fluid cell-derived ECM Matrix D, mass spectrometry, label = protein component.

As for Microtubule-associated protein 1B, the “Total Spectra Count Matrix A” value under setting [1] was 21. Moreover, the “Total Spectra Count Matrix B” value under setting [2] is 104. In addition, the “Total Spectra Count Matrix C” value under setting [3] came out at 0. For the same substance, the “Total Spectra Count Matrix D” value under setting [4] came to 22.

For the substance Mucin-16, the “Total Spectra Count Matrix A” value under setting [5] was 0. In addition, the “Total Spectra Count Matrix B” value under setting [6] is on record as 0. Besides, the “Total Spectra Count Matrix C” value under setting [7] is on record as 2. Further, the “Total Spectra Count Matrix D” value under setting [8] turned out to be 4.

As to Myosin-9, the “Total Spectra Count Matrix A” value under setting [1] is 564. Further, under setting [2], the “Total Spectra Count Matrix B” value worked out at 3923. Further, under setting [3], the “Total Spectra Count Matrix C” value stood at 295. Besides, the “Total Spectra Count Matrix D” value under setting [4] worked out at 340.

For the substance Nestin, the “Total Spectra Count Matrix A” value under setting [5] is listed as 0. For the same substance, under setting [6], the “Total Spectra Count Matrix B” value is given as 18. Besides, under setting [7], the “Total Spectra Count Matrix C” value came out at 0. The “Total Spectra Count Matrix D” value under setting [8] came to 0.

In the case of Neurabin-2, under setting [5], the “Total Spectra Count Matrix A” value stood at 0. Further, the “Total Spectra Count Matrix B” value under setting [6] was found to be 3. Moreover, the “Total Spectra Count Matrix C” value under setting [7] worked out at 0. The “Total Spectra Count Matrix D” value under setting [8] was 0.

For Neurobeachin, the “Total Spectra Count Matrix A” value under setting [5] is 0. Moreover, under setting [6], the “Total Spectra Count Matrix B” value turned out to be 0. Moreover, under setting [7], the “Total Spectra Count Matrix C” value was found to be 0. Also, the “Total Spectra Count Matrix D” value under setting [8] worked out at 3.

As for “Neuroblast differentiation-associated protein AHNAK”, the “Total Spectra Count Matrix A” value under setting [1] came out at 250. Besides, the “Total Spectra Count Matrix B” value under setting [2] came out at 803. The “Total Spectra Count Matrix C” value under setting [3] is on record as 17. In addition, the “Total Spectra Count Matrix D” value under setting [4] was found to be 184.

As for Nuclear receptor-binding protein, the “Total Spectra Count Matrix A” value under setting [5] worked out at 0. In addition, the “Total Spectra Count Matrix B” value under setting [6] is reported as 5. Also, the “Total Spectra Count Matrix C” value under setting [7] stood at 0. The “Total Spectra Count Matrix D” value under setting [8] came to 0.

For the substance PDZ and LIM domain protein 4, the “Total Spectra Count Matrix A” value under setting [5] is listed as 0. Moreover, the “Total Spectra Count Matrix B” value under setting [6] was found to be 3. In addition, under setting [7], the “Total Spectra Count Matrix C” value is listed as 0. Also, the “Total Spectra Count Matrix D” value under setting [8] came out at 0.

Take Pentraxin-related protein PTX3: the “Total Spectra Count Matrix A” value under setting [5] is 0. Besides, the “Total Spectra Count Matrix B” value under setting [6] is listed as 23. Moreover, the “Total Spectra Count Matrix C” value under setting [7] is listed as 0. For the same substance, the “Total Spectra Count Matrix D” value under setting [8] was found to be 0.

Turning to Peptidyl-prolyl cis-trans isomerase B, under setting [5], the “Total Spectra Count Matrix A” value amounted to 0. For the same substance, the “Total Spectra Count Matrix B” value under setting [6] turned out to be 52. Under setting [7], the “Total Spectra Count Matrix C” value came to 0. Further, the “Total Spectra Count Matrix D” value under setting [8] is 0.

Take “Peptidyl-prolyl cis-trans isomerase FKBP10”: the “Total Spectra Count Matrix A” value under setting [5] was determined as 0. Moreover, the “Total Spectra Count Matrix B” value under setting [6] came to 3. Under setting [7], the “Total Spectra Count Matrix C” value was determined as 0. For the same substance, under setting [8], the “Total Spectra Count Matrix D” value came to 0.

For Pinin, the “Total Spectra Count Matrix A” value under setting [5] is 0. Moreover, under setting [6], the “Total Spectra Count Matrix B” value stood at 6. In addition, under setting [7], the “Total Spectra Count Matrix C” value is given as 2. The “Total Spectra Count Matrix D” value under setting [8] is 4.

“Platelet-activating factor acetylhydrolase IB subunit alpha”: the “Total Spectra Count Matrix A” value under setting [5] amounted to 0. Also, the “Total Spectra Count Matrix B” value under setting [6] came out at 4. Moreover, the “Total Spectra Count Matrix C” value under setting [7] is 0. Under setting [8], the “Total Spectra Count Matrix D” value is 0.

Probable maltase-glucoamylase 2: the “Total Spectra Count Matrix A” value under setting [5] stood at 0. In addition, the “Total Spectra Count Matrix B” value under setting [6] is 0. Under setting [7], the “Total Spectra Count Matrix C” value is 0. Moreover, under setting [8], the “Total Spectra Count Matrix D” value was determined as 2.

As to Protein disulfide-isomerase, under setting [1], the “Total Spectra Count Matrix A” value was determined as 23. Under setting [2], the “Total Spectra Count Matrix B” value is 0. Besides, the “Total Spectra Count Matrix C” value under setting [3] stood at 6. Under setting [4], the “Total Spectra Count Matrix D” value is recorded as 19.

Consider “SWISS-PROT: P02070 (Bos taurus) Hemoglobin subunit beta”, for which the “Total Spectra Count Matrix A” value under setting [1] was 14. Moreover, under setting [2], the “Total Spectra Count Matrix B” value amounted to 0. Besides, the “Total Spectra Count Matrix C” value under setting [3] was 0. Under setting [4], the “Total Spectra Count Matrix D” value is on record as 0.

Turning to “SWISS-PROT: P12763 (Bos taurus) Alpha-2-HS-glycoprotein precursor”, the “Total Spectra Count Matrix A” value under setting [1] was 30. Besides, the “Total Spectra Count Matrix B” value under setting [2] is reported as 42. In addition, the “Total Spectra Count Matrix C” value under setting [3] turned out to be 18. In addition, the “Total Spectra Count Matrix D” value under setting [4] was 19.

For the substance Stress-70 protein, mitochondrial, under setting [1], the “Total Spectra Count Matrix A” value came out at 17. The “Total Spectra Count Matrix B” value under setting [2] was determined as 33. Moreover, the “Total Spectra Count Matrix C” value under setting [3] is listed as 0. Besides, the “Total Spectra Count Matrix D” value under setting [4] turned out to be 10.

As to T-complex protein 1 subunit epsilon, the “Total Spectra Count Matrix A” value under setting [1] is given as 17. The “Total Spectra Count Matrix B” value under setting [2] is reported as 110. Further, the “Total Spectra Count Matrix C” value under setting [3] is listed as 18. Also, under setting [4], the “Total Spectra Count Matrix D” value stood at 22.

Turning to T-complex protein 1 subunit eta, the “Total Spectra Count Matrix A” value under setting [1] is reported as 20. Further, under setting [2], the “Total Spectra Count Matrix B” value came out at 72. Besides, the “Total Spectra Count Matrix C” value under setting [3] was determined as 15. Also, under setting [4], the “Total Spectra Count Matrix D” value was 22.

Take T-complex protein 1 subunit gamma: under setting [1], the “Total Spectra Count Matrix A” value is 23. In addition, under setting [2], the “Total Spectra Count Matrix B” value worked out at 72. In addition, the “Total Spectra Count Matrix C” value under setting [3] came out at 17. Under setting [4], the “Total Spectra Count Matrix D” value is 26.

Consider Thrombospondin-1, for which the “Total Spectra Count Matrix A” value under setting [1] is 24. Besides, under setting [2], the “Total Spectra Count Matrix B” value is on record as 103. In addition, the “Total Spectra Count Matrix C” value under setting [3] is 3. In addition, the “Total Spectra Count Matrix D” value under setting [4] is on record as 1.

Regarding Triosephosphate isomerase, the “Total Spectra Count Matrix A” value under setting [1] is recorded as 15. Besides, under setting [2], the “Total Spectra Count Matrix B” value is on record as 15. In addition, the “Total Spectra Count Matrix C” value under setting [3] amounted to 0. Further, the “Total Spectra Count Matrix D” value under setting [4] is 11.

Regarding Vimentin, the “Total Spectra Count Matrix A” value under setting [1] is 263. For the same substance, under setting [2], the “Total Spectra Count Matrix B” value is 1179. For the same substance, the “Total Spectra Count Matrix C” value under setting [3] was determined as 178. Under setting [4], the “Total Spectra Count Matrix D” value was found to be 338.

Regarding “Voltage-dependent anion-selective channel protein 1”, under setting [1], the “Total Spectra Count Matrix A” value amounted to 18. Also, the “Total Spectra Count Matrix B” value under setting [2] worked out at 50. In addition, the “Total Spectra Count Matrix C” value under setting [3] is 4. The “Total Spectra Count Matrix D” value under setting [4] is reported as 19.

eIF-2-alpha kinase activator GCN1: the “Total Spectra Count Matrix A” value under setting [1] is 14. Further, the “Total Spectra Count Matrix B” value under setting [2] amounted to 0. Under setting [3], the “Total Spectra Count Matrix C” value worked out at 0. In addition, the “Total Spectra Count Matrix D” value under setting [4] is given as 6.

Source of the values: US11220671B2, “Methods for the maturation of cardiomyocytes on amniotic fluid cell-derived ECM, cellular constructs, and uses for cardiotoxicity and proarrhythmic screening of drug compounds” (STEMBIOSYS, INC., priority 2019, dated 2022).
